The values that follow come from the supplement of paper PMC8728848.

The list shows a part of the results.

Assay in all cases: glycan array binding signal (z-score within array); higher = stronger binding
Common to all, as to conditions: glycan notation: IUPAC condensed, linker removed

The target in assay [1] is Neu5Gc(a2-8)Neu5Gc(a2-3)Gal(b1-4)GlcNAc(b1-3)Gal(b1-4)GlcNAc. The procedure, abridged:
(§1)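 The binding signal is a Z-score computed within each array and averaged over linkers. Arrays of the same protein sequence at different concentrations or buffers were also averaged together. Data originate from 3228 arrays in the Consortium for Functional Glycomics database, kept only where the protein sequence was available.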

The target in assay [2] is Neu5Gc(a2-8)Neu5Gc(a2-6)Gal(b1-4)GlcNAc. Summed up:
as §1

Assay [3] addresses Neu5Gc(b2-6)Gal(b1-4)GlcNAc. The procedure, abridged: as §1

B1: AT5G24760(45) (Arabidopsis thaliana), Q8LEB2 (protein)
chain: MSASSSSFEQPQVITCNAAVAWRAGEPLVMEEVEVSPPQPLEIRIKVVCTSLCRSDLSAWESQSLLPRIFGHEAAGIVESIGEGVTEFEKGDHVLAVFTGECGSCRHCISGKSNMCQVLGMERKGLMHSDQKTRFSIKGKPVYHYCAVSSFSEYTVVHSGCAVKVDPLAPLHKICLLSCGVAAGLGAAWNVADVQKGSSVVIFGLGTVGLSVAQGAKLRGAAQILGVDINPAKAEQAKTFGVTDFINSNDLSEPIPQVIKRMTGGGADFSFECVGDTGIATTALQSCSDGWGMTVTLGVPKAKPEVSAHYGLFLSGKSLKGTLFGGWKPKSDLPSLIDKYMNKEIMIDEFITHNLSFDEINKAFVLMREGKCLRCVLHMPK
Turning to B1, the “glycan array binding signal (z-score)” value was -0.497 in assay [1], -1.16 in assay [2] and 1.15 in assay [3].
